Results are given in words; binding and its absence hold for the method and conditions named. In cells and extracts the contact can be indirect. These calls come from enrichment with a bait or labelling near it, and not all partners need be listed.
Biological target: T1, DDK‐FBXO16 (human) (UniProt Q8IX29)
T1 sequence: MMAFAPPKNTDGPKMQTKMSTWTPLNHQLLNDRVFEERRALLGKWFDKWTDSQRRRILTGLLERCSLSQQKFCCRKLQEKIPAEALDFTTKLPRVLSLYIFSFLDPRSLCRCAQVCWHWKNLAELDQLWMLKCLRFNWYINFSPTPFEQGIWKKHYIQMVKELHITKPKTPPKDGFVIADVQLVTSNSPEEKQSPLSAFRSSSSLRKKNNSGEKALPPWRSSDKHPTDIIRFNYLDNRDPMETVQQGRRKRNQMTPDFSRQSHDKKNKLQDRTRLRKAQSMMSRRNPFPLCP
Assay: affinity purification with mass spectrometry; MCF7 cells expressing vector or DDK‐FBXO16, 5 μM MG132 for 6 h; anti‐DDK immunoprecipitation, elution with 8 M urea and 0.5 M Tris pH 7.4, LC–MS/MS (Orbitrap fusion)

By UniProt entry, the sequences of proteins in these tests, tags left out.
UniProt P35222: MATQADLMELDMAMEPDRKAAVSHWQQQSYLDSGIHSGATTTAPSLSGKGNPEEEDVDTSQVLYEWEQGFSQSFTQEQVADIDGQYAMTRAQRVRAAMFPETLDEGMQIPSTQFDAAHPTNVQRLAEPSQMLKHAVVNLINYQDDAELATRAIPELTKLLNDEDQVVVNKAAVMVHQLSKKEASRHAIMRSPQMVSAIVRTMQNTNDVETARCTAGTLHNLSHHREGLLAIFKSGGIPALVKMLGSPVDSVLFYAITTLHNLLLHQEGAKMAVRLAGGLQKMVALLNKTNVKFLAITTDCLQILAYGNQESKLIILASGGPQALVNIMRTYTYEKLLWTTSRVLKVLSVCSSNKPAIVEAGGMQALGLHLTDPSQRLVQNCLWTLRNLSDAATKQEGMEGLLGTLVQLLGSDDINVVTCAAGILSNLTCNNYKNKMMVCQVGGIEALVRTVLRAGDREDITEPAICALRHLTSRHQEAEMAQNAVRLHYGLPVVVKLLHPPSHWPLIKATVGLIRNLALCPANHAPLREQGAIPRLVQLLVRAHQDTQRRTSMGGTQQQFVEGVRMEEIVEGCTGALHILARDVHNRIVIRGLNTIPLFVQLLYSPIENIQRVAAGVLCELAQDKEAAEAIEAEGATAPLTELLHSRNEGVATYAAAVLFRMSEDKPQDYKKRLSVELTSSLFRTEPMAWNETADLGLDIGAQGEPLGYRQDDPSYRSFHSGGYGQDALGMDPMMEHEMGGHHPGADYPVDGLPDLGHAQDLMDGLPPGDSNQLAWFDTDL

binding: binds
Substance: β‐catenin (endogenous) (from UniProt P35222 1-781)
